The supplement of paper PMC11348887
Structures can show the parent of a compound that is named as a salt. This is one part of the list. Most values lie at the level of the controls, where differences are scatter.

Assays:
Settings in all cases: 5 µM; treatment: days 7-14 after plating, readout day 21
[1] = tested on: hPSC-derived cortical neurons (WA09); assay: nucleus area z-score vs screen plate; higher = larger nuclei (more mature)
[2] = tested on: hPSC-derived cortical neurons (WA09); assay: total neurite length per nucleus (MAP2) z-score; higher = more neurite growth
[3] = tested on: hPSC-derived cortical neurons (WA09); assay: nucleus roundness z-score vs screen plate; higher = rounder nuclei (more mature)
[4] = tested on: hPSC-derived cortical neurons (WA09); assay: KCl-induced FOS+/EGR-1+ double-positive nuclei fraction z-score (KCl minus unstimulated); higher = stronger activity-induced IEG response

Compound | nucleus area z-score [1] | total neurite length per nucleus (z-score) [2] | nucleus roundness z-score [3] | KCl-induced FOS+/EGR-1+ double-positive nuclei fraction z-score [4]
COc1cc2/c(=N/c3ccc(Br)cc3F)nc[nH]c2cc1OCC1CCN(C)CC1 [Vandetanib (ZD6474)] | 0.0782 | 0.927 | 0.246 | 0.16
CCCC(=O)OCOC(=O)C1=C(C)NC(C)=C(C(=O)OC)C1c1cccc(Cl)c1Cl (stereo not drawn) [Clevidipine Butyrate] | 0.936 | 1.83 | -0.591 | -0.575
CCOC(=O)C1=C(C)NC(C)=C(C(=O)OC)C1c1cccc(Cl)c1Cl (stereo not drawn) [Felodipine] | 0.0934 | -1.46 | 0.169 | -0.499
C=CC1=C(C(=O)O)N2C(=O)[C@@H](NC(=O)/C(=N\OCC(=O)O)c3csc(N)n3)[C@H]2SC1 [Cefixime] | 0.113 | -0.114 | 0.167 | 0.929
CC(C)CN(C[C@@H](O)[C@H](Cc1ccccc1)NC(=O)O[C@H]1CO[C@H]2OCC[C@H]21)S(=O)(=O)c1ccc(N)cc1 [Darunavir Ethanolate] | 1.05 | -0.64 | -0.09 | -1.45
O=C1CC2(CCCC2)CC(=O)N1CCCCN1CCN(c2ncccn2)CC1 [Buspirone HCl] | 1.66 | -0.265 | -2.01 | 1.1
CC(=O)[C@@]1(O)CC[C@H]2[C@@H]3CCC4=CC(=O)CCC4=C3[C@@H](c3ccc(N(C)C)cc3)C[C@@]21C [Ulipristal] | 0.399 | 0.117 | 0.287 | 0.411
C[C@]1(O)C[C@@H](c2nc(-c3ccc4ccc(-c5ccccc5)nc4c3)c3c(N)nccn32)C1 [OSI-906 (Linsitinib)] | -2.18 | -0.684 | -0.00736 | -0.374
COC(=O)C1=C(C)NC(C)=C(C(=O)OC)C1c1ccccc1[N+](=O)[O-] [Nifedipine] | -0.352 | 0.701 | -0.207 | -0.112
CCOc1ccc2nc(S(N)(=O)=O)sc2c1 [Ethoxzolamide] | 0.178 | 0.475 | 0.126 | -1.02
CC(=O)O[C@]1(C(C)=O)CC[C@H]2[C@@H]3C=C(C)C4=CC(=O)CC[C@]4(C)[C@H]3CC[C@@]21C [Megestrol Acetate] | -0.194 | 0.763 | 0.579 | 0.0955
Cc1ccc(-c2cc(C(F)(F)F)nn2-c2ccc(S(N)(=O)=O)cc2)cc1 [Celecoxib] | 0.05 | -0.561 | 0.197 | -0.404
COc1ccc(-c2coc3cc(O)ccc3c2=O)cc1 [Formononetin] | -0.0849 | -0.224 | -0.6 | 0.0587
CC(=O)Oc1ccccc1C(=O)Nc1ncc([N+](=O)[O-])s1 [Nitazoxanide] | -0.581 | 0.705 | 1.17 | 1.01
Oc1ccc(C2CNCCc3c2cc(O)c(O)c3Cl)cc1 (stereo not drawn) [Fenoldopam mesylate] | 0.447 | -0.615 | 0.451 | -0.248
CC1C(=O)OC2C(O)C34C5CC(C(C)(C)C)C36C(OC(=O)C6O)OC4(C(=O)O5)C12O (stereo not drawn) [Ginkgolide B] | -0.0879 | 0.727 | 0.529 | 0.603
CC(C(=O)O)c1ccc(-c2ccccc2)c(F)c1 (stereo not drawn) [Flurbiprofen] | -0.155 | 0.692 | 0.186 | 0.46
Cn1c2ccccc2c2c3c(c4c5ccccc5n(CCC#N)c4c21)CNC3=O | -0.127 | 0.734 | 0.994 | -0.819
CCN(CC)CCOC(=O)c1ccc(N)cc1 [Procaine HCl] | -0.911 | 0.309 | -0.387 | 0.473

Compound | nucleus area z-score [1] | total neurite length per nucleus (z-score) [2] | nucleus roundness z-score [3] | KCl-induced FOS+/EGR-1+ double-positive nuclei fraction z-score [4]
CC(C)(O)CC[C@@H](O)[C@](C)(O)[C@H]1CC[C@@]2(O)C3=CC(=O)[C@@H]4C[C@@H](O)[C@@H](O)C[C@]4(C)[C@H]3CC[C@]12C [20-Hydroxyecdysone] | -0.482 | -0.294 | 0.396 | -0.263
CCC(=O)c1c(O)cc(O)cc1O [Flopropione] | 0.286 | 0.311 | -0.297 | -0.0127
O=C(NC[C@H]1CN(c2ccc(N3CCOCC3=O)cc2)C(=O)O1)c1ccc(Cl)s1 [Rivaroxaban] | 0.205 | 1.35 | 1.1 | 0.532
Cc1cc(C#N)cc(C)c1Oc1nc(Nc2ccc(C#N)cc2)nc(N)c1Br [Etravirine (TMC125)] | -0.775 | 0.163 | -0.729 | -0.361
COC(=O)c1ccc2c(c1)nc(NC(=O)c1ccccc1)n2CCCc1ccccc1 | -0.239 | 0.334 | 0.332 | 2.48
CC[C@H](c1ccc(O)cc1)[C@@H](CC)c1ccc(O)cc1 [Hexestrol] | 1.83 | -0.0682 | -0.38 | 0.599
CCOC(=O)CCNc1cc(N2CCc3ccccc3CC2)nc(-c2ccccn2)n1 | -0.423 | 0.133 | -1.37 | 0.272
CC(C)(C)NS(=O)(=O)c1cncc(-c2cc(F)c3nc(N)nn3c2)c1 | -0.34 | -0.716 | 0.144 | 1.04
CN(C)c1ccc(-c2nc3ncc(Cl)c(N4CCN(CC(=O)Nc5nccs5)CC4)c3[nH]2)cc1 | -0.504 | 0.222 | 0.654 | -0.416
O=C(/C=C/c1ccc(O)c(O)c1)OCCc1ccccc1 [Caffeic Acid Phenethyl Ester] | -2.17 | 0.45 | -0.838 | -0.107
C[C@@H]1C/C=C/C=C/C=C/C=C/[C@H](O[C@@H]2O[C@H](C)[C@@H](O)[C@H](N)[C@@H]2O)C[C@@H]2O[C@](O)(C[C@@H](O)C[C@H]3O[C@@H]3/C=C/C(=O)O1)C[C@H](O)[C@H]2C(=O)O [Natamycin] | 0.798 | 0.668 | 0.206 | 0.818
N.N.O=C([O-])C[O-].[Pt+2] [Nedaplatin] | -5.27 | 0.0953 | 1.38 | 0.725
N#C/C(=C\c1ccc(O)c(O)c1)C(=O)NCc1ccccc1 [AG-490 (Tyrphostin B42)] | 1.04 | -0.721 | -0.822 | -0.605
NS(=O)(=O)c1cc2c(cc1Cl)N=CNS2(=O)=O [Chlorothiazide] | 0.514 | -0.674 | -0.253 | 0.109
Cc1ccnc2c1NC(=O)c1cccnc1N2C1CC1 [Nevirapine] | 0.74 | 0.796 | 1.4 | 1.98
CNNCc1ccc(C(=O)NC(C)C)cc1 [Procarbazine HCl] | 0.0434 | 0.748 | 0.531 | 0.262
Nc1ccc(S(=O)(=O)c2ccc(N)cc2)cc1 [Dapson] | 0.2 | 0.875 | 0.0934 | 0.218
Cc1ccc(NC(=O)Nc2cc(C(F)(F)F)ccc2F)cc1Nc1ccc2c(c1)NC(=O)/C2=C\c1ccc[nH]1 | -6.83 | -4.46 | -4 | -0.562
CC(C)N(CC[C@H](c1ccccc1)c1cc(CO)ccc1O)C(C)C | 0.209 | 0.645 | 1.01 | 1.23

In the list so far, 15 contain nitrogen in an aromatic ring.
Compound | nucleus area z-score [1] | total neurite length per nucleus (z-score) [2] | nucleus roundness z-score [3] | KCl-induced FOS+/EGR-1+ double-positive nuclei fraction z-score [4]
COc1cc2/c(=N/c3ccc(Br)cc3F)nc[nH]c2cc1OCC1CCN(C)CC1 [Vandetanib (ZD6474)] | 0.0782 | 0.927 | 0.246 | 0.16
C=CC1=C(C(=O)O)N2C(=O)[C@@H](NC(=O)/C(=N\OCC(=O)O)c3csc(N)n3)[C@H]2SC1 [Cefixime] | 0.113 | -0.114 | 0.167 | 0.929
O=C1CC2(CCCC2)CC(=O)N1CCCCN1CCN(c2ncccn2)CC1 [Buspirone HCl] | 1.66 | -0.265 | -2.01 | 1.1
C[C@]1(O)C[C@@H](c2nc(-c3ccc4ccc(-c5ccccc5)nc4c3)c3c(N)nccn32)C1 [OSI-906 (Linsitinib)] | -2.18 | -0.684 | -0.00736 | -0.374
CCOc1ccc2nc(S(N)(=O)=O)sc2c1 [Ethoxzolamide] | 0.178 | 0.475 | 0.126 | -1.02
Cc1ccc(-c2cc(C(F)(F)F)nn2-c2ccc(S(N)(=O)=O)cc2)cc1 [Celecoxib] | 0.05 | -0.561 | 0.197 | -0.404
CC(=O)Oc1ccccc1C(=O)Nc1ncc([N+](=O)[O-])s1 [Nitazoxanide] | -0.581 | 0.705 | 1.17 | 1.01
Cn1c2ccccc2c2c3c(c4c5ccccc5n(CCC#N)c4c21)CNC3=O | -0.127 | 0.734 | 0.994 | -0.819
Cc1cc(C#N)cc(C)c1Oc1nc(Nc2ccc(C#N)cc2)nc(N)c1Br [Etravirine (TMC125)] | -0.775 | 0.163 | -0.729 | -0.361
COC(=O)c1ccc2c(c1)nc(NC(=O)c1ccccc1)n2CCCc1ccccc1 | -0.239 | 0.334 | 0.332 | 2.48
CCOC(=O)CCNc1cc(N2CCc3ccccc3CC2)nc(-c2ccccn2)n1 | -0.423 | 0.133 | -1.37 | 0.272
CC(C)(C)NS(=O)(=O)c1cncc(-c2cc(F)c3nc(N)nn3c2)c1 | -0.34 | -0.716 | 0.144 | 1.04
CN(C)c1ccc(-c2nc3ncc(Cl)c(N4CCN(CC(=O)Nc5nccs5)CC4)c3[nH]2)cc1 | -0.504 | 0.222 | 0.654 | -0.416
Cc1ccnc2c1NC(=O)c1cccnc1N2C1CC1 [Nevirapine] | 0.74 | 0.796 | 1.4 | 1.98
Cc1ccc(NC(=O)Nc2cc(C(F)(F)F)ccc2F)cc1Nc1ccc2c(c1)NC(=O)/C2=C\c1ccc[nH]1 | -6.83 | -4.46 | -4 | -0.562

Further results:

Compound | nucleus area z-score [1] | total neurite length per nucleus (z-score) [2] | nucleus roundness z-score [3] | KCl-induced FOS+/EGR-1+ double-positive nuclei fraction z-score [4]
Clc1ccc(C(c2ccccc2Cl)C(Cl)Cl)cc1 (stereo not drawn) [Mitotane] | 0.489 | 0.319 | -0.542 | 0.106
CC[C@H](C)C(=O)O[C@H]1C[C@H](O)C=C2C=C[C@H](C)[C@H](CC[C@@H](O)C[C@@H](O)CC(=O)O)[C@H]21 [Pravastatin sodium] | -0.206 | 0.639 | 1.06 | -2
CN(C)CCCN1c2ccccc2Sc2ccc(Cl)cc21 [Chlorpromazine HCl] | -0.749 | -1.42 | -2.18 | -0.242
Cc1nc2c(O)cccc2c(=O)[nH]1 | 1.31 | -1.6 | -1.24 | -0.359
Cc1cc(C)cc(NC(=O)Cc2ccc(OC(C)(C)C(=O)O)cc2)c1 [Efaproxiral Sodium] | 0.125 | 0.162 | -0.0594 | 0.592
O=C(c1cncc(Br)c1)N1CCC(N2CCCC2)CC1 | 0.678 | 0.463 | 0.304 | 0.925
COc1cc2c(Oc3ccc4[nH]c(C)cc4c3F)ncnc2cc1OCCCN1CCCC1 [Cediranib (AZD2171)] | -2.3 | -1.03 | -0.338 | -0.307
CCc1cc(/C(C)=N/OCc2ccc(C3CCCCC3)c(C(F)(F)F)c2)ccc1CN1CC(C(=O)O)C1 [BAF312 (Siponimod)] | 0.158 | 0.801 | 0.803 | 0.632
O=C(O)CCCC[C@@H]1SC[C@@H]2NC(=O)N[C@@H]21 [Biotin (Vitamin B7)] | -0.252 | -0.119 | 0.0781 | 1.94
COc1cc(NC(=O)c2ccccn2)ccc1Cl | 1.06 | -0.125 | 0.231 | 1.63
O=C(/C=C\n1cnc(-c2cc(C(F)(F)F)cc(C(F)(F)F)c2)n1)NNc1ccccn1 [Verdinexor (KPT-335)] | -9.99 | -2.82 | -5.91 | -0.687
C[C@@H](O)[C@H]1C(=O)N2C(C(=O)O)=C(S[C@@H]3CN[C@H](CNS(N)(=O)=O)C3)[C@H](C)[C@H]12 [Doripenem Hydrate] | -0.146 | 0.838 | 0.44 | 0.4
CCN(CC)CCOC(=O)c1ccc(N)cc1Cl [Chloroprocaine HCl] | 2.55 | -1.07 | -0.498 | 0.642
Cc1cc(C(C)(C)C)cc(C)c1CC1=NCCN1 [Xylometazoline HCl] | 0.532 | -0.289 | -0.181 | 0.495
CN(C)CCOc1ccc(/C(=C(/CCCl)c2ccccc2)c2ccccc2)cc1 [Toremifene Citrate] | -2.22 | -1.37 | -0.386 | 1.36
CC(C)C[C@H](NP(=O)(O)O[C@@H]1O[C@@H](C)[C@H](O)[C@@H](O)[C@H]1O)C(=O)N[C@@H](Cc1c[nH]c2ccccc12)C(=O)O [Phosphoramidon Disodium Salt] | 0.0607 | 0.097 | 0.385 | 0.518
Cc1cc(Nc2nc(N[C@@H](C)c3ncc(F)cn3)ncc2Cl)[nH]n1 | 1.89 | 0.546 | -1.32 | -0.451
N#Cc1c(NC(=O)c2cccc3ccccc23)sc2c1CCCC2 [JNK Inhibitor IX] | -0.512 | 0.26 | 0.496 | -0.396
CC(C)(Oc1ccc(Cl)cc1)C(=O)O [Clofibric Acid] | 0.371 | -0.023 | 1.23 | 0.359
